{"source": "patent US4683227A", "about": "“Antibiotic derivatives of 7β-[2-(thiazol-4-yl)acetamide]-3-chloro-3-cephem-4-carboxylic acids and compositions and method of use thereof” (Eli Lilly and Company, priority 1985, dated 1987)", "origin": "cited, not measured here", "conditions": "oral; background; cited from earlier work", "data": [{"smiles": "CC1=C(C(=O)O)N2C(=O)[C@@H](NC(=O)[C@H](N)c3ccccc3)[C@H]2SC1", "note": "[cephalexin]", "values": [{"measurement": "absorption from the gastrointestinal tract", "result": "high absorption"}]}]}
